{"source": "PubChem BioAssay AID504467", "about": "(National Center for Advancing Translational Sciences (NCATS), 2011)", "note": "Screen size: about 330,000 compounds; about 7,700 (2.3%) were called active. This list was built around the results that the source calls inconclusive (neither active nor inactive); the mix of calls is not that of the screen. Calls follow the shape of the dose curve; as a rule, active = well fitted inhibition curve with a large enough effect; inconclusive = small, poorly fitted or top-dose-only effect, or effect the other way; inactive = flat fitted curve, though single readings scatter. A potency beside an inconclusive call is a rough fit, not a confirmed value. % is scaled to controls: 0 for no effect and ±100 for the full control effect; potency is read from the fitted curve at half-maximal effect."}
{"assay": "qHTS screen for small molecules that inhibit ELG1-dependent DNA repair in human embryonic kidney (HEK293T) cells expressing luciferase-tagged ELG1; also: nearly all actives have a fitted effect of over 55% in size", "details": "HEK293T ELG1-luciferase reporter, luminescence, 16 h, DNA damage induced by 5-fluorouridine; activity change, negative = inhibition: at 46.1 µM (top of the series)", "summary_of_the_method": "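Reporter activity after DNA damage by 5-fluorouridine is monitored. Compound-treated cells incubate 16 hr at 37 °C, then ONE-Glo is added for 30 min before luminescence reading.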"}
{"molecule": "Cc1ncoc1C(=O)Nc1ncc([N+](=O)[O-])s1", "Potency": "inconclusive: 2.59 µM [activator, partial curve]"}
{"molecule": "COc1cc(SC#N)ccc1N=Cc1c(C)[nH]n(-c2ccc(Cl)cc2)c1=O", "Potency": "inconclusive: 29.1 µM [activator, single point]"}
{"molecule": "Cc1cc(C)c2cc3c(N)c(C(=O)N4CCOCC4)sc3nc2c1", "activity change, negative = inhibition": "inactive: 5.26%"}
{"molecule": "CCOC(=O)Cn1c(CN2CCN(C(c3ccccc3)c3ccccc3)CC2)nc2c1c(=O)n(C)c(=O)n2C", "Potency": "inconclusive: 18.4 µM [inhibitor, partial curve, poor fit]"}
{"molecule": "C/C(CCC1CC(C)OC1=O)=N\\NC(N)=S", "note": "(stereo not drawn)", "Potency": "inconclusive: 8.2 µM [activator, partial curve, poor fit]"}
{"molecule": "COc1ccc(CCNC(=O)c2cc(C3CC3)nc3c2cnn3C(C)C)cc1", "Potency": "inconclusive: 11.2 µM [inhibitor, partial curve]"}
{"molecule": "CC12CN3CC(C)(CN(C1)C3c1ccc(Cl)cc1)C2", "note": "(stereo not drawn)", "Potency": "inconclusive: 16.4 µM [activator, partial curve, poor fit]"}
{"molecule": "COCCn1cnc2c(c1=O)c1nc3ccccc3nc1n2/N=C/c1ccc(OC)c(OC)c1", "Potency": "active: 5.8 µM"}
{"molecule": "COc1ccc(N=CC2=C(O)CC(c3ccccc3)CC2=O)c(OC)c1", "note": "(stereo not drawn)", "Potency": "inconclusive: 7.31 µM [inhibitor, partial curve]"}
{"molecule": "CC1(c2nnc(-c3ccncc3)o2)CC(c2ccc(F)cc2)=NO1", "note": "(stereo not drawn)", "Potency": "inconclusive: 8.2 µM [inhibitor, partial curve]"}
{"molecule": "CCc1ccc(NC(=O)c2ccc(S(=O)(=O)NCc3cccnc3)cc2)cc1", "Potency": "inconclusive: 32.6 µM [inhibitor, single point]"}
{"molecule": "CCOc1ncccc1C(=O)Nc1ccc(Cl)c(S(=O)(=O)N2CCCC2)c1", "Potency": "inconclusive: 16.4 µM [inhibitor, partial curve, poor fit]"}
{"molecule": "COc1ccc([C@]2(C(C)C)ON(c3ccccc3C(F)(F)F)C2=O)cc1", "activity change, negative = inhibition": "inactive: -11%"}
{"molecule": "O=C(NCCOc1cccnc1)C1CCC(=O)N(Cc2ccccc2F)C1", "note": "(stereo not drawn)", "activity change, negative = inhibition": "inactive: -9.76%"}
{"molecule": "O=[N+]([O-])c1ccccc1S(=O)(=O)Nc1cccc(-c2ccc(N3CCCC3)nn2)c1", "Potency": "inconclusive: 20.6 µM [activator, single point]"}
{"molecule": "Cc1ccc(N(CC(=O)NC(C)c2ccccc2)S(=O)(=O)c2c(C)noc2C)cc1", "note": "(stereo not drawn)", "activity change, negative = inhibition": "inactive: -2.74%"}
{"molecule": "Cc1ccc(S(=O)(=O)c2nc(-c3ccccc3Cl)oc2N2CCN(C)CC2)cc1", "activity change, negative = inhibition": "inactive: -17.6%"}
{"molecule": "c1coc(C2Nc3ccccc3C3OCCC23)c1", "note": "(stereo not drawn)", "Potency": "inconclusive: 20.6 µM [activator, partial curve, poor fit]"}
{"molecule": "Cc1cccnc1NC(=O)CCNS(=O)(=O)c1ccc2c(c1)c(=O)n(C)c(=O)n2C", "activity change, negative = inhibition": "inactive: 13.9%"}
{"molecule": "COC(=O)c1ccccc1-c1ccc(/C=N/NC(=O)c2cc3ccccc3o2)o1", "Potency": "inconclusive: 25.9 µM [inhibitor, partial curve]"}
{"molecule": "COC(=O)c1c(NC(=O)CN2C(=O)NC3(CCCCC3C)C2=O)sc2c1CCC2", "note": "(stereo not drawn)", "Potency": "inconclusive: 14.1 µM [inhibitor, partial curve, poor fit]"}
{"molecule": "COc1ccc(NC(=O)c2ccc(C)cc2)c(OC)c1", "Potency": "inconclusive: 13 µM [activator, partial curve]"}
{"molecule": "COc1ccc(NCC(O)Cn2c(C)c(C)c3ccccc32)cc1", "note": "(stereo not drawn)", "Potency": "inconclusive: 29.1 µM [inhibitor, single point]"}
{"molecule": "Clc1cccc(CSc2nnc(-c3sccc3-n3cccc3)o2)c1", "Potency": "inconclusive: 23.1 µM [inhibitor, partial curve, poor fit]"}
{"molecule": "O=C(O)C1C2CCC(O2)C1C(=O)Nc1ccc(F)c(Cl)c1", "note": "(stereo not drawn)", "Potency": "inconclusive: 29.1 µM [activator, single point]"}
{"molecule": "CC1NC(=O)c2ccccc2-n2c1nc1cc(F)ccc1c2=O", "note": "(stereo not drawn)", "activity change, negative = inhibition": "inactive: 9.02%"}
{"molecule": "Cc1ccc(NC(=O)Nc2ccccc2)cc1[N+](=O)[O-]", "Potency": "inconclusive: 2.31 µM [activator, partial curve]"}
{"molecule": "Cc1ccc(C(=O)CSc2ccccc2C(=O)O)cc1", "Potency": "inconclusive: 18.3 µM [activator, partial curve]"}
{"molecule": "O=C(Nn1c(O)c(C=C2N=c3ccccc3=N2)sc1=S)c1ccccc1Cl", "Potency": "inconclusive: 9.2 µM [activator, partial curve, poor fit]"}
{"molecule": "Cc1cc(N2CCOCC2)nc2ccc(NC(=S)N3CCCCC3C)cc12", "note": "(stereo not drawn)", "Potency": "inconclusive: 29.1 µM [inhibitor, single point]"}
{"molecule": "COc1ccccc1/C=C/C=N/n1c(-c2ccncc2)n[nH]c1=S", "activity change, negative = inhibition": "inactive: 0.0172%"}
{"molecule": "CCOc1ccc(N(CC(=O)NC2CCCCC2)C(=O)CSc2nnc(COc3ccccc3)o2)cc1", "Potency": "active: 18.4 µM"}
{"molecule": "CCOC(=O)CN1C(=O)C(Sc2n[nH]c(-c3ccc(C)cc3)n2)CCc2ccccc21", "note": "(stereo not drawn)", "Potency": "inconclusive: 20.6 µM [inhibitor, single point]"}
{"molecule": "CC(=N)c1c(O)c2ccccc2oc1=O", "Potency": "inconclusive: 18.3 µM [activator, partial curve]"}
{"molecule": "COc1ccc(N2C(=O)C(Cl)=C(NCc3ccccc3)C2=O)cc1", "activity change, negative = inhibition": "inactive: 24.9%"}
{"molecule": "N#C/C(=C\\c1ccc(N2CCOCC2)o1)c1ccccc1", "Potency": "inconclusive: 2.31 µM [activator, partial curve]"}
{"molecule": "COCCn1c(C)cc(C(=O)COC(=O)C23CC4CC(CC(O)(C4)C2)C3)c1C", "Potency": "inconclusive: 2.06 µM [activator, partial curve]"}
{"molecule": "C=CCN=c1sc(C(=O)OC)cc(=O)n1CC=C", "Potency": "inconclusive: 5.8 µM [activator, single point]"}
{"molecule": "CCNc1nc2c(c(=O)[nH]c(=O)n2C)n1Cc1ccc(F)cc1", "Potency": "inconclusive: 18.4 µM [activator, single point]"}
{"molecule": "Cc1ccc2ccc(C(Nc3ccccn3)c3ccccc3)c(O)c2n1", "note": "(stereo not drawn)", "activity change, negative = inhibition": "inactive: -15.4%"}
{"molecule": "O=C(c1ccc(NC(=S)Nc2ccc(Cl)c(Cl)c2)cc1)N1CCCC1", "Potency": "inconclusive: 23.1 µM [inhibitor, single point]"}
{"molecule": "COc1ccc(/C=C/C(=O)C2C(=O)C=C(C)OC2=O)cc1O", "note": "(stereo not drawn)", "Potency": "inconclusive: 2.91 µM [activator, full curve]"}
{"molecule": "CC(=O)c1c(C)[nH]c(C(=O)Nc2nc(-c3ccc(Cl)cc3)cs2)c1C", "Potency": "inconclusive: 29.1 µM [inhibitor, single point]"}
